From PubChem BioAssay AID1347426 (Functional Genomics Laboratory (NCATS/FGL), 2020)
Hit rate of the full screen: of about 31,000 sequences, about 1,400 (4.5%) were called active.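 The calls were made as follows: active = median seed-adjusted z-score above 1 or below -1; inactive = the rest.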 The list shows a part of the results.

experiment: Novel Modifiers of Survival Motor Neuron (SMN) Protein: Gene Identification via Genome-wide siRNA Screen; conditions: HEK293T SMN2-luciferase reporter, siRNA knockdown, 72 h; actives lie on both sides;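 also: luminescence tracks full-length SMN protein made from the SMN2 reporter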
Summary of the method: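 siRNA screen, 10418 genes ×3 siRNAs; 1 pmol/well, lipid reverse transfection into HEK293T SMN2-luc reporter line. 72 h, 37 °C, 5% CO2; ONE-Glo readout. Data: neg-ctrl normalized, log10, MAD; hit = MAD >1.0 or < -1.0.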

Row | Sequence | median seed-adjusted z-score
1 | GAAUUACCUUUGGAUUCAATT against MORC3 | inactive: 0.245
2 | CCUUCACAAAGAACCAGAATT against S100A11 | inactive: 0.702
3 | GAAUAGACCUCAACUAUCUTT against NIT1 | inactive: -0.528
4 | GCAAGCACAUCGUCGUGUATT against CPT1A | inactive: 0.129
5 | GAAUAUCCAUGAGAUUUCATT against TIMM9 | inactive: -0.371
6 | CAGUGGAACUAAAGCCGUUTT against BAT2 | inactive: 0.0889
7 | UUACCAGCCUGAGAACAUATT against TRIM5 | inactive: 0.0758
8 | CGUGCAACCCAAAACUACATT against LCN10 | inactive: 0
9 | CUACCGUUAUGUUUCCCAATT against CDYL | inactive: 0
10 | GGAGAUAAACGCAAGGGAATT against BCL2L13 | inactive: 0.311
11 | CGGUGGAUGUCAAACCCAATT against SALL4 | inactive: -0.344
12 | GGUUAUCCCAAACUGAUUATT against MMP12 | inactive: 0.0476
13 | GGAGGAAUGUUGGUUCAGATT against DHRS12 | inactive: 0.118
14 | GGUAAUGAAUUAAAGAAGATT against CD8A | inactive: 0.777
15 | GCUCAUUCAUUGUUCGAGATT against TNS3 | inactive: 0.18
16 | GCCCUGACAUUUCCCGAAATT against FOXJ2 | inactive: -0.627
17 | GCUGCUUGUUAUGAUCCUATT against DBR1 | inactive: 0.438
18 | GCGACAAGACGAGCCUUCATT against ISL2 | inactive: 0.392
19 | CACAGACUGUUUUAACUGUTT against PPP1CC | inactive: -0.344
20 | ACAUCAACAUCAACCCAGATT against YY2 | inactive: 0.363
21 | CCAUCAGCUUUAGGAUAUATT against RTN4 | inactive: -0.0191
22 | CUUUUACCAUCCACACGAATT against RBP7 | inactive: 0.0709

Row | Sequence | median seed-adjusted z-score
23 | AGGUGUCGUUUGUAAUUCATT against SEPHS1 | inactive: -0.102
24 | AGGAAACCCUAGACCCAGATT against DHODH | inactive: -0.422
25 | GCAUUCACGUAUCCCAGUUTT against ZNF763 | inactive: 0.236
26 | GACAAGUUUGGAAUAAAUUTT against ME3 | inactive: 0.166
27 | CUUGCGACCUGUCCAAUUATT against CPSF3 | inactive: -0.918
28 | CGCAAAAGGCUACCACGAATT against CD300LF | inactive: -0.264
29 | UAAUGGGAGUUUACCAUGATT against CALML6 | inactive: 0.0119
30 | GGGUUACUGUUUAAGGAAATT against GNG12 | inactive: 0.331
31 | CAUCAUCUCUUUCAACGUATT against BAZ1A | inactive: 0.0896
32 | GCUGCACGAUUAAUGAAGATT against ADAMTS16 | inactive: -0.133
33 | GGAAAAUUAGUAAAGAGCATT against UBP1 | inactive: 0.847
34 | UGGCUAAGGUUGGACAAUATT against NDUFA11 | inactive: -0.722
35 | GGAGUACCUUUCACAUCUATT against ZBTB2 | inactive: 0.217
36 | CCAUGUCGCAGAAUGGAUATT against SLC4A11 | inactive: -0.18
37 | GCAGGACCGAAUUCAGCAATT against OTUB1 | inactive: 0.598
38 | CCAUCCAAGCCUACAGUUATT against F11R | inactive: -0.329
39 | GGAUAGAUGUUUCUAUCAATT against SUZ12 | active: -1.65
40 | CCAUAACAUUCACAAGUGUTT against TRPS1 | inactive: -0.125
41 | GGGAUAAGGUGGUCGCUCUTT against ARFGAP1 | inactive: 0.123
42 | AAAUAUCCUUAGUACAAAATT against NOTCH2NL | inactive: 0.586
43 | GGAGCCUCUUGGAAGGAGATT against TREM2 | inactive: 0.057
44 | GGUUUGAGAAGAUCAGCAATT against RRAGA | inactive: 0.511

Quoted from above: nos. 21–24
Row | Sequence | median seed-adjusted z-score
21 | CCAUCAGCUUUAGGAUAUATT against RTN4 | inactive: -0.0191
22 | CUUUUACCAUCCACACGAATT against RBP7 | inactive: 0.0709
23 | AGGUGUCGUUUGUAAUUCATT against SEPHS1 | inactive: -0.102
24 | AGGAAACCCUAGACCCAGATT against DHODH | inactive: -0.422

Further results follow.

Row | Sequence | median seed-adjusted z-score
45 | GCUGGAGACUAUGUGCUAATT against TP53I3 | inactive: 0.244
46 | CCUUACUCGUCGGAAAUCATT against PRIC285 | inactive: 0
47 | GAUCAAACCUUGUAUCUCUTT against ARG2 | inactive: -0.796
48 | CGACCUCAUUAUCUGGUUUTT against SKIP | inactive: 0.804
49 | GACUCGUGGUUUGAAGUGATT against ZNRF1 | inactive: -0.808
50 | GAGCUGACUUUCUGACCAATT against RAB7A | inactive: 0.169
51 | GCUGAUACCAGAGCACUGATT against CCR3 | inactive: -0.334
52 | GGUGUGGUUUUACUAGAAATT against IRAK4 | inactive: -0.288
53 | CAACCGCAAUUGGAGUUAUTT against KIF5B | inactive: 0.162
54 | GUACAGAACCUGGAUGAAATT against SYNPO2L | inactive: -0.47
55 | CACUGAGGAUGAACGCAAATT against PIP5K3 | inactive: 0.00523
56 | GGAGAUUACGAAAGCCUUUTT against RHOBTB1 | inactive: -0.605
57 | CCUCGAGGAGAUUAACAAATT against NPEPL1 | active: 1.12
58 | CACUGAUACAGGACAUAGATT against SEMA4G | inactive: 0.188
59 | GUUGUUUACUUUCCACGAATT against KIF2A | inactive: 0.289
60 | CGGGAAAAUUUUGUACUGATT against PROZ | inactive: -0.422
61 | AGAGAAUCUCGAGGAUAUATT against ZNF74 | active: 1.17
62 | CGAGGCCUGACAUCACUUATT against CHCHD2 | inactive: 0.0884
63 | CUACCUCGGCCGAAAGCAATT against FOXB2 | inactive: -0.0149
64 | GAAAUUUGCAGAACCUAGATT against SNX14 | inactive: 0
65 | CGAUGUGGAUUGAAGCGCATT against HIPK3 | inactive: -0.00424
66 | CGACCAACCCUUACGACUATT against MYH3 | inactive: -0.113

Row | Sequence | median seed-adjusted z-score
67 | GGAAGACUCAUUGAACAUATT against CASP1 | inactive: -0.331
68 | AGAUAUGGAUUUUAACAAUTT against CAPNS2 | inactive: 0.529
69 | GACCUAUCGAACUCAGUUATT against SKP2 | inactive: -0.126
70 | CCAGUGUGCUCAGACGUAATT against KIF4B | inactive: -0.0753
71 | GGAGUGGAGCGACUACAAATT against CHRNA2 | inactive: -0.513
72 | GAGACUUUAUUGAUGCUUATT against CYP2J2 | inactive: 0.00659
73 | CCCUUACACUAAGCACCAATT against HOXD10 | inactive: -0.374
74 | GCUUAUUUAUCGAGUCCGATT against RIT1 | inactive: -0.157
75 | GGAUGAGAAGAGACGUAGATT against DNMT1 | inactive: 0.185
76 | CUAACUCAUUUGACCAUAUTT against KIF3B | inactive: 0.554
77 | GCAGUAUCAUCGGAAAGAATT against PCBP2 | inactive: 0
78 | GGUUCUCAGGAGCACCAGATT against OASL | active: 1.02
79 | GUACUGAUCUUAUUGAACATT against ZNF271 | inactive: 0.484
80 | UAACUCUGGUUGCACGAAATT against KDSR | inactive: -0.108
81 | CCCUAAACAUUUUAGAUGATT against PDE7A | inactive: 0.861
82 | CUUGAACAAGUGUCAAUAATT against COX7A1 | inactive: -0.47
83 | GGAUUACAUCCAUCGAGUATT against DDX47 | inactive: -0.398
84 | CCCUUAUGAAUAUAGCUAUTT against ATL3 | inactive: 0.201
85 | ACCUGGAUAUCAACCAGUATT against PROM2 | inactive: 0.188
86 | GACUUACUUAGAUAUGAGATT against ZNF568 | inactive: 0.501
87 | CAGAGCAAGUGGACCUGUATT against MARS | inactive: -0.266
88 | GGACCGGAUUUGUUCGGAUTT against UBN1 | inactive: 0.0782

Row | Sequence | median seed-adjusted z-score
89 | CCUAAGAAGCUACAAGUAUTT against PNLIPRP1 | inactive: -0.725
90 | CAGUGUUAGUGGAUUCAGATT against TMEM87B | inactive: -0.51
91 | CUCAAGAACUGUCAAGUAATT against GSK3B | inactive: -0.952
92 | CUGUCCAUCUGGGUCGUGATT against SLC30A2 | inactive: -0.402
93 | GGUCAUACCUAUAACUACATT against SLC14A1 | inactive: -0.0585
94 | GAAAGACUGUCCAAUCACATT against PHF12 | inactive: 0.784
95 | CAUUUUCAGUCUUUAGAAATT against RNF34 | inactive: -0.0857
96 | UCAUCGACAUGGUCCUGAATT against PTPRN | inactive: -0.272
97 | CCAUCUACCUUUGCCGACATT against PFKFB1 | inactive: -0.561
98 | GUUCCUACCCAUAACUAAATT against SLC26A5 | inactive: -0.252
99 | GAACCACCAUUGGACCUAUTT against DNPEP | inactive: -0.293
100 | GGACUUAUUCUGCAUAGGATT against ZNF471 | inactive: 0.364
101 | GGAGCAUUUUGAUAAGCCUTT against SOX3 | inactive: 0.32
102 | CAUUCGAAACCUUGUCUUATT against PTPRR | inactive: 0.502
103 | CCACUACGCUCGCAACUUATT against GAL3ST4 | inactive: 0.248
104 | GCAACCCUCAUUGAAGAUATT against TRPC4AP | inactive: 0.106
105 | GAAUGUUCAAGAUCGAUUUTT against RANBP2 | active: 1.53
106 | CGAGCUACACUGUCCACUUTT against CSGLCA-T | inactive: 0.146
107 | ACUUCAUCGAGGACCCAAATT against CACNA2D2 | inactive: -0.702
